Results are given in words; binding and its absence hold for the method and conditions named. In cells and extracts the contact can be indirect. Some results given as binding are weak or reduced against the parent protein; the word gives no strength.
Target: T1, TgGAP45 (Toxoplasma gondii (endogenous in tachyzoites)) (UniProt Q7Z289)
T1 sequence: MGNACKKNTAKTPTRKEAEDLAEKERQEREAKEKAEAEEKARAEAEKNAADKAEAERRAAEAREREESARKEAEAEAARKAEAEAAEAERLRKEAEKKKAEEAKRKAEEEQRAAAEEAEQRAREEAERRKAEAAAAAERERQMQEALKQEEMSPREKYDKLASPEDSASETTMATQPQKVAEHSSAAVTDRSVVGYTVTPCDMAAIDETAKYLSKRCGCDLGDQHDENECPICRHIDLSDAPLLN
Experiment: co-IP; anti-TgGAP45 immunoprecipitation (protein A or G Sepharose) from 1% TX-100 extracts (50 mM Tris-Cl pH 8, 150 mM NaCl, 5 mM EDTA, 4°C) of 35S-labeled extracellular parasites treated with DMSO, 100 µM tachypleginA or other compounds; SDS-PAGE or 2D gel, autoradiography, anti-TgMLC1 western …

In the case of “TgMyoA, unconventional Class XIV myosin of Toxoplasma gondii (from UniProt O00934 1-831)”, the binding is reported as “binds”.

— PMC2800044
